Results are given in words; binding and its absence hold for the method and conditions named. For some assays here: A result given as binding can be weak or reduced; the word gives no strength. Where a sequence is shown, tags or fusion partners need not be part of it.
Legend:
[1] = target: recombinant His-RBP16 (T. brucei); assay: far-Western, overlay or dot blot; His-tagged proteins run on denaturing 10% SDS-PAGE, transferred to PVDF; membrane incubated with 0.5-1.0 μg purified TbPRMT1 in TBS-T with 2% nonfat dry milk overnight at 4°C; detected with anti-TbPRMT1 polyclonal antibodies; both purified
[2] = target: recombinant His-TbLpn (T. brucei); assay: as above

binding [2]: binds
B1: recombinant His-TbPRMT1 (enzyme, UniProt Q4GYA9 1-345)
chain: MTVDANAASSTTTTTDYYFDSYSHYGIHMEMLKDCHRTTSYRDAMWRNAYLFKDKVVLDVGCGTGILSMFAAKAGARKVIGVDCSTVAVQAREIVRDNGFEDVITIIQGKVEEIQLDEKVDIIISEWMGYFLLYESMLNTVLYARDNLGTPDVKMFPDKANMHVCGITDEQYIQERFNIWDNVQGIDFSYFKRLSFIEPLVDTVERSQIVTNVAPLVSFDINTVKEADLSFTSEFALEAQASRGKRNGGNSIIYVHALSVHFDTPFTAGHEVVILDTTPYSPPTHWRQTVLYLFNPLRMRAGERATFRMKCSPNALNGRDLDISLHVDFEGALQISHYDQDFRLR
binding [1]: no binding (tested: 0.5-1.0 μg of purified TbPRMT1)
